Patent US12227496B2 (BRISTOL-MYERS SQUIBB COMPANY, priority 2019, dated 2025)
The match of structure and compound is tentative.

The chains behind the UniProt entries cited, without tags or fusion partners. Residues count along the entry.
UniProt Q96RI1, 262-486 limits assumed: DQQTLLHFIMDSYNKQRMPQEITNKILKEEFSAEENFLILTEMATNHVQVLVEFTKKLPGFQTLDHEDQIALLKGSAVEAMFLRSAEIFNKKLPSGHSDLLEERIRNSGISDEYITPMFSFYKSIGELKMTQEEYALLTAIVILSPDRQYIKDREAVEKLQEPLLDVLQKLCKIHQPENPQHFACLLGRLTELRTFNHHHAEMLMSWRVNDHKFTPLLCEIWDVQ

Target: human FXR (Homo sapiens, UniProt Q96RI1)
Assay: transient human FXR/Gal4-luciferase reporter assay
Format: cell-based
Conditions: read-out: FXR EC50; Gal4-hFXR LBD fusion, luciferase reporter in HEK293 cells; response relative to 8 μM GW-4064

## CC(C)(C)c1nc(C23CCC(CN(C(=O)C4CCOCC4)c4cccc(-c5ccc(P(C)(C)=O)cc5)c4)(CC2)CC3)no1
  EC50: 1.48 µM
